These are yes or no findings as the source states them, for the method shown. Binding seen in cells or lysates may run through a third protein. Here binding means that the protein was enriched with, or labelled near, the bait; the list need not be complete. Where a sequence is shown, tags or fusion partners need not be part of it.
T1: SFB-tagged ZMYM2 (human) (UniProt Q9UBW7)
T1 sequence: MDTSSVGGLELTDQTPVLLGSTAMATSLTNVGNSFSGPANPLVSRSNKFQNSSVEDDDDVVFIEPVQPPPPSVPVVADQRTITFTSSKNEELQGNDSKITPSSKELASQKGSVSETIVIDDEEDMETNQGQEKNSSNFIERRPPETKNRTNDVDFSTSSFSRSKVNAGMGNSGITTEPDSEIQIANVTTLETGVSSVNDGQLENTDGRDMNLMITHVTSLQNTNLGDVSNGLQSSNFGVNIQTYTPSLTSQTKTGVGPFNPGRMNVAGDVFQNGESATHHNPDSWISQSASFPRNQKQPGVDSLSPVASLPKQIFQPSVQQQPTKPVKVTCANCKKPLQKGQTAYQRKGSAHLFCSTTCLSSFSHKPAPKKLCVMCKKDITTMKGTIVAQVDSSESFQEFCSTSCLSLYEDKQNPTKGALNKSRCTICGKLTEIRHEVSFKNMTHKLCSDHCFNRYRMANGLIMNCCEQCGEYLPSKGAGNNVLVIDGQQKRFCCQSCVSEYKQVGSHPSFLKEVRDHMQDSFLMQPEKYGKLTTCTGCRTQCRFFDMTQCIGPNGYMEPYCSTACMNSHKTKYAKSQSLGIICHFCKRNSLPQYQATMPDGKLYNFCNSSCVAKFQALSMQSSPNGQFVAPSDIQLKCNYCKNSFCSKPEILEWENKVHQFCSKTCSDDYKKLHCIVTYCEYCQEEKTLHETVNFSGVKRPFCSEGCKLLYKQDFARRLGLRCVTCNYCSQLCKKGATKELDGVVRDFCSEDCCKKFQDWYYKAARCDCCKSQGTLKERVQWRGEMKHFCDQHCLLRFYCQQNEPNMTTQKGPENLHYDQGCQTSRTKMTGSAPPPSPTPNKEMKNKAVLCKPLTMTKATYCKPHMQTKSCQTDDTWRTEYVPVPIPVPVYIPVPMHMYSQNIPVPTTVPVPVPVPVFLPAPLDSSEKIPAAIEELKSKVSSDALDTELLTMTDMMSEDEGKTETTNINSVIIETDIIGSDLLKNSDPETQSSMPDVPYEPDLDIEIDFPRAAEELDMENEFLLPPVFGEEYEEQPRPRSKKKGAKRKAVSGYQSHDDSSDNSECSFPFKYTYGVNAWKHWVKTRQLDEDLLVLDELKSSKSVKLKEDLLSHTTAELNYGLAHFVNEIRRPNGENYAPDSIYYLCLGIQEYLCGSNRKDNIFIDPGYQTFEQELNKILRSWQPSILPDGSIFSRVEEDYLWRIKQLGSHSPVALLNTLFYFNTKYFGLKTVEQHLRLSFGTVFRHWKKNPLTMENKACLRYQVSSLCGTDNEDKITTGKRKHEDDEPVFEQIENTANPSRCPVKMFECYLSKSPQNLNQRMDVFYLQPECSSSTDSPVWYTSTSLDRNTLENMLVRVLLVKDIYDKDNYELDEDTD

Sequences of proteins named here, by UniProt entry; tags and fusion partners are left off.
UniProt P78527: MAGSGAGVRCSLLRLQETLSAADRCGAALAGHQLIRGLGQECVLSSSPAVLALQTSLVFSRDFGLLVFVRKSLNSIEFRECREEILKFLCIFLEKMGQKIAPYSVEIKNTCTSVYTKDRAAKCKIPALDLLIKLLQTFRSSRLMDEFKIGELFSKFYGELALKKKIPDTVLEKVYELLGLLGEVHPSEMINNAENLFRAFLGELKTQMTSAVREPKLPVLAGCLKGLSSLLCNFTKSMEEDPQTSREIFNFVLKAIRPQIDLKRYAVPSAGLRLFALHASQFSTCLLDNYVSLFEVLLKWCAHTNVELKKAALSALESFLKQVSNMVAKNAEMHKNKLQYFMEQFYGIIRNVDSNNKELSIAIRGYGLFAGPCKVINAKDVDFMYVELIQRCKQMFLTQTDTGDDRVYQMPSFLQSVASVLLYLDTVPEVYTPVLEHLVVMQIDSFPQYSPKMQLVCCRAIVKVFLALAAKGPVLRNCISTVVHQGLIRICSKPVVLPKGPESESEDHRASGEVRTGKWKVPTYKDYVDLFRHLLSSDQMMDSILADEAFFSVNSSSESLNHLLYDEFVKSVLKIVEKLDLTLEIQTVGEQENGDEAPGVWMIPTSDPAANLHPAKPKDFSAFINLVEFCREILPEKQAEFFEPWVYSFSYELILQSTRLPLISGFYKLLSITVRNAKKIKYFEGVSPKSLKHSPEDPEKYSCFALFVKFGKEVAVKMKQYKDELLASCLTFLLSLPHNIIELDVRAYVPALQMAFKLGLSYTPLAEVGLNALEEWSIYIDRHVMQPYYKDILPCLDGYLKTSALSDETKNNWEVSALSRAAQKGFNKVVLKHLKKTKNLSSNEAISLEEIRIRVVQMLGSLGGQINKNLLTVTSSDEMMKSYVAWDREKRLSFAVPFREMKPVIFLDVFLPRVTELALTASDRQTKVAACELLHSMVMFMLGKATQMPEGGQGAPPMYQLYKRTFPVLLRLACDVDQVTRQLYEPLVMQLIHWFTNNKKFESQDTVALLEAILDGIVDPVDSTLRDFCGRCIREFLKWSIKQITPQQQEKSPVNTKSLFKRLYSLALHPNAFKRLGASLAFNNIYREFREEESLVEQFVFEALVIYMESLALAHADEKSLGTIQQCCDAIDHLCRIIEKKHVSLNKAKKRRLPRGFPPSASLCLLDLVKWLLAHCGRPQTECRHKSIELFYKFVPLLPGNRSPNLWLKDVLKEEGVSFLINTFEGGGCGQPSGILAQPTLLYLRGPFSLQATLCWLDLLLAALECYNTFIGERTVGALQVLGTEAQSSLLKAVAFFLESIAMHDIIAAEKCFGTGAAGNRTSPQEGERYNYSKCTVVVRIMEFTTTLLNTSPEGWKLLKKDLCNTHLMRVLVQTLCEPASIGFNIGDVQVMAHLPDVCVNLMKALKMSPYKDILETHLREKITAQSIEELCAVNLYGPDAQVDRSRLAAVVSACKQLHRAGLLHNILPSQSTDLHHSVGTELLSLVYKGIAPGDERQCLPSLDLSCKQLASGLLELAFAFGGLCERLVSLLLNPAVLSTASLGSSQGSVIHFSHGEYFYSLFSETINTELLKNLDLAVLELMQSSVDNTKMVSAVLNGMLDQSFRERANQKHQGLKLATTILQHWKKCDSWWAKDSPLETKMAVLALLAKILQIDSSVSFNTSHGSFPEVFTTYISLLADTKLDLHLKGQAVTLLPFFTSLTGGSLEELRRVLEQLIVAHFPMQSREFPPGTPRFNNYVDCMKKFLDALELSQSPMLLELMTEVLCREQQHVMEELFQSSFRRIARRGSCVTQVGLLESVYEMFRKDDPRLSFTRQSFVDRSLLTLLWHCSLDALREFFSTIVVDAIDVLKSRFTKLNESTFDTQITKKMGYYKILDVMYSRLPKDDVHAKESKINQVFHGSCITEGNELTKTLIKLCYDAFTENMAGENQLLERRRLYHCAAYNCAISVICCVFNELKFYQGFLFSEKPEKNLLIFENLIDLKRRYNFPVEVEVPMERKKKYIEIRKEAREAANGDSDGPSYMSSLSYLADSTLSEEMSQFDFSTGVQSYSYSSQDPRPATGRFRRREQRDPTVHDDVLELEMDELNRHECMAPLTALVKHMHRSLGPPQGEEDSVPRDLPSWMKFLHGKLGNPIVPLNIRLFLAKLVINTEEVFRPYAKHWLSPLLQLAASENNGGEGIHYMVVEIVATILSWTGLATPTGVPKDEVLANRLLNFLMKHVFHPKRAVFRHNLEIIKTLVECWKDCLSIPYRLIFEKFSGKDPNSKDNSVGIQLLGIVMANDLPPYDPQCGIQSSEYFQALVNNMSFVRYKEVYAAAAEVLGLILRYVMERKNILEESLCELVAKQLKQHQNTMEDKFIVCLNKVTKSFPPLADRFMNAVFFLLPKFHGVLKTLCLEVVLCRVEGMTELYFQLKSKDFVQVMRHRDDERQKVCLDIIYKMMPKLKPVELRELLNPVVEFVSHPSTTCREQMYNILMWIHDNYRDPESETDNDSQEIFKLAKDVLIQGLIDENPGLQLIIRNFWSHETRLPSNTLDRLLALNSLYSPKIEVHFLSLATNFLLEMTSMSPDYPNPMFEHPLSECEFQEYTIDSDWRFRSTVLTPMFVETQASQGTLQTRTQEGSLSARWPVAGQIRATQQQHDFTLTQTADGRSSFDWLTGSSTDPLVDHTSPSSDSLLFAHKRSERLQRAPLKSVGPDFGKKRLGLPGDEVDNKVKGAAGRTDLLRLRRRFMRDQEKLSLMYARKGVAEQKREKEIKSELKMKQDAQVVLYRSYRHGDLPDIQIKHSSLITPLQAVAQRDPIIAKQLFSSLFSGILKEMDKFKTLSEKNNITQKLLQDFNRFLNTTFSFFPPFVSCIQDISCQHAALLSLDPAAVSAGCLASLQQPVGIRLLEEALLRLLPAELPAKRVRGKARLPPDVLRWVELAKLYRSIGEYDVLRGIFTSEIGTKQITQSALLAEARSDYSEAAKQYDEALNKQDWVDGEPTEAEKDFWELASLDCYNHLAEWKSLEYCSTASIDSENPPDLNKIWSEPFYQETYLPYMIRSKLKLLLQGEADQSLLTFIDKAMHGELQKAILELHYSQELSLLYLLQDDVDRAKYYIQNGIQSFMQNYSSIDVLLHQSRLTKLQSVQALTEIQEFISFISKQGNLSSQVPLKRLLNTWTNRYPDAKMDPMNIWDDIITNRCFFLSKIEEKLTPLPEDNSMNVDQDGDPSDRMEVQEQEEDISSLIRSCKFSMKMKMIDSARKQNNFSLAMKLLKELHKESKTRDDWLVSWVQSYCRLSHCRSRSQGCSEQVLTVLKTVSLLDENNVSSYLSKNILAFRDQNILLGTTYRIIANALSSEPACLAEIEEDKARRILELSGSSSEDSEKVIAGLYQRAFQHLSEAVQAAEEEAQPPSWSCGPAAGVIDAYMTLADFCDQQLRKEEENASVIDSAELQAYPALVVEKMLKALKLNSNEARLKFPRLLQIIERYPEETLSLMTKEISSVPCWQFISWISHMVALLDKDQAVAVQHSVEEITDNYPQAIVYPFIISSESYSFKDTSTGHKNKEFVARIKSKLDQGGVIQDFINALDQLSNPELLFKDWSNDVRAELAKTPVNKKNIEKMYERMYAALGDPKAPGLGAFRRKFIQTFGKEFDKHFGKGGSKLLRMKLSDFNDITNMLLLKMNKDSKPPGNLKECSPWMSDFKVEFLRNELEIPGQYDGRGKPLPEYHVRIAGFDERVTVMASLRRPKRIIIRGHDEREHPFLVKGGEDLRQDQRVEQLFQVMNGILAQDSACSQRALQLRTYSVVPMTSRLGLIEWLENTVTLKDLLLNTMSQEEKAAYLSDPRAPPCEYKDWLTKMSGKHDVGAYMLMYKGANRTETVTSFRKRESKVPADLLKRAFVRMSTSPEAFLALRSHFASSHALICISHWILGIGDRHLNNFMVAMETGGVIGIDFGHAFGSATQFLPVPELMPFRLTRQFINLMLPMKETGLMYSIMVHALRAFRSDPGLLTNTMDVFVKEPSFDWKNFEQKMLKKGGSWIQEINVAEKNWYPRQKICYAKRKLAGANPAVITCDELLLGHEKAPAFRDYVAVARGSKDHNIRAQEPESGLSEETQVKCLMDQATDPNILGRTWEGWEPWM


Biological target: T1, SFB-tagged ZMYM2 (human)
Test: affinity purification with mass spectrometry; tandem affinity purification of SFB-ZMYM2 from transfected HEK293T cells; chromatin fraction (NETN buffer with Turbo-Nuclease, 1 mM MgCl2); streptavidin sepharose, biotin elution, S-protein beads; two independent experiments

Row | Molecule | binding
1 | DNA-dependent protein kinase DNA-PK (PRKDC) (from UniProt P78527 1-4128) (enzyme) | binds
2 | Endogenous ZMYM3 (protein, UniProt Q14202 1-1370) MDPSDFPSPFDPLTLPEKPLAGDLPVDMEFGEDLLESQTAPTRGWAPPGPSPSSGALDLLDTPAGLEKDPGVLDGATELLGLGGLLYKAPSPPEVDHGPEGTLAWDAGDQTLEPGPGGQTPEVVPPDPGAGANSCSPEGLLEPLAPDSPITLQSPHIEEEETTSIATARRGSPGQEEELPQGQPQSPNAPPSPSVGETLGDGINSSQTKPGGSSPPAHPSLPGDGLTAKASEKPPERKRSERVRRAEPPKPEVVDSTESIPVSDEDSDAMVDDPNDEDFVPFRPRRSPRMSLRSSVSQRAGRSAVGTKMTCAHCRTPLQKGQTAYQRKGLPQLFCSSSCLTTFSKKPSGKKTCTFCKKEIWNTKDSVVAQTGSGGSFHEFCTSVCLSLYEAQQQRPIPQSGDPADATRCSICQKTGEVLHEVSNGSVVHRLCSDSCFSKFRANKGLKTNCCDQCGAYIYTKTGSPGPELLFHEGQQKRFCNTTCLGAYKKKNTRVYPCVWCKTLCKNFEMLSHVDRNGKTSLFCSLCCTTSYKVKQAGLTGPPRPCSFCRRSLSDPCYYNKVDRTVYQFCSPSCWTKFQRTSPEGGIHLSCHYCHSLFSGKPEVLDWQDQVFQFCCRDCCEDFKRLRGVVSQCEHCRQEKLLHEKLRFSGVEKSFCSEGCVLLYKQDFTKKLGLCCITCTYCSQTCQRGVTEQLDGSTWDFCSEDCKSKYLLWYCKAARCHACKRQGKLLETIHWRGQIRHFCNQQCLLRFYSQQNQPNLDTQSGPESLLNSQSPESKPQTPSQTKVENSNTVRTPEENGNLGKIPVKTRSAPTAPTPPPPPPPATPRKNKAAMCKPLMQNRGVSCKVEMKSKGSQTEEWKPQVIVLPIPVPIFVPVPMHLYCQKVPVPFSMPIPVPVPMFLPTTLESTDKIVETIEELKVKIPSNPLEADILAMAEMIAEAEELDKASSDLCDLVSNQSAEGLLEDCDLFGPARDDVLAMAVKMANVLDEPGQDLEADFPKNPLDINPSVDFLFDCGLVGPEDVSTEQDLPRTMRKGQKRLVLSESCSRDSMSSQPSCTGLNYSYGVNAWKCWVQSKYANGETSKGDELRFGPKPMRIKEDILACSAAELNYGLAQFVREITRPNGERYEPDSIYYLCLGIQQYLLENNRMVNIFTDLYYLTFVQELNKSLSTWQPTLLPNNTVFSRVEEEHLWECKQLGVYSPFVLLNTLMFFNTKFFGLQTAEEHMQLSFTNVVRQSRKCTTPRGTTKVVSIRYYAPVRQRKGRDTGPGKRKREDEAPILEQRENRMNPLRCPVKFYEFYLSKCPESLRTRNDVFYLQPERSCIAESPLWYSVIPMDRSMLESMLNRILAVREIYEELGRPGEEDLD | binds

From PMC9023290
